These are yes or no findings as the source states them, for the method shown. In cells and extracts the contact can be indirect. Some binding calls cover weakened binding; strength is not graded here. Tags and fused reporters may be left off the sequences shown.
Molecular target: T1, ^35S-PEX26-myc (human) (UniProt Q7Z412)
T1 sequence: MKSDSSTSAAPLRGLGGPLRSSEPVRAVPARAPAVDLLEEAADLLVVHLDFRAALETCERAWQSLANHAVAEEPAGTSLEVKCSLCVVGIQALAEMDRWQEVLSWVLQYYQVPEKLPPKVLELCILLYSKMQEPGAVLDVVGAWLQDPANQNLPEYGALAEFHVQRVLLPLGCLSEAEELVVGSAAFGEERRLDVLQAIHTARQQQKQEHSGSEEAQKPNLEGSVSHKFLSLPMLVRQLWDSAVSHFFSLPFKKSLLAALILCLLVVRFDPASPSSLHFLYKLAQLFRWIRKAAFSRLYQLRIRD
Assay: pull-down; magnetic myc-Trap beads; in vitro synthesised 35S-PEX26-myc/35S-PEX19 as bait (nanograms) with in vitro synthesised 35S-labelled preys in buffer C (20 mM HEPES, 150 mM NaCl, 20% glycerol, pH 7.4, 0.02% Tween 20) with 2 mM ATP and 4 mM MgCl2; eluted with myc-peptide; autoradiography

Protein sequences, listed by entry. Tags and fused reporters are not part of them.
UniProt Q92968: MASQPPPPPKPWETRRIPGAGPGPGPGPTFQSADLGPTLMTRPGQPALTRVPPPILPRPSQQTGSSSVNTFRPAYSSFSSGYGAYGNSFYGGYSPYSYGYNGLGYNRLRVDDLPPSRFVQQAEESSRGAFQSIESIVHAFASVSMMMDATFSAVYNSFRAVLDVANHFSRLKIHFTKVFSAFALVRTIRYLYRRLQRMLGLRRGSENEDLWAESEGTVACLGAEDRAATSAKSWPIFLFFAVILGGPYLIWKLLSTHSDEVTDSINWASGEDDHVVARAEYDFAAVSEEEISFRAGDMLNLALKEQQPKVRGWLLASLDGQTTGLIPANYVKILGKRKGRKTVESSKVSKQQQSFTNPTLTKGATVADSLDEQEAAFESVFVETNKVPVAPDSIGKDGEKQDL
UniProt O75381: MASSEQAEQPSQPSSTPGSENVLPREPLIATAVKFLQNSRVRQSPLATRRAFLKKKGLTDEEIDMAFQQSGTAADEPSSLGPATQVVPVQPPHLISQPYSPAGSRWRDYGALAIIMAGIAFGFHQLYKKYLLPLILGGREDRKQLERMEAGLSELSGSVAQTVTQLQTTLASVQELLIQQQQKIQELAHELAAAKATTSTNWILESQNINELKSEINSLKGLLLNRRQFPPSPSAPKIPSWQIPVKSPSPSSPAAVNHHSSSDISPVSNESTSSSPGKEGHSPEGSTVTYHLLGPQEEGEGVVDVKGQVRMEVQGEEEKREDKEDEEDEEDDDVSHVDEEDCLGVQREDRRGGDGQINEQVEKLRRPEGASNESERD

Substance	binding
^35S-PEX13 (from UniProt Q92968 1-403)	binds weakly
^35S-PEX14 (from UniProt O75381 1-377)	binds
